Measurements taken from article PMC10509265.
These are yes or no findings as the source states them, for the method shown. Binding seen in cells or lysates may run through a third protein. Some results given as binding are weak or reduced against the parent protein; the word gives no strength.

By UniProt entry, the sequences of proteins in these tests, tags left out. Where a name states a change or a piece, a line headed by the entry shows the natural chain unless it says otherwise. Chains listed by the source or under a name are the forms on record and can include a tag or linker.
UniProt Q9Z329: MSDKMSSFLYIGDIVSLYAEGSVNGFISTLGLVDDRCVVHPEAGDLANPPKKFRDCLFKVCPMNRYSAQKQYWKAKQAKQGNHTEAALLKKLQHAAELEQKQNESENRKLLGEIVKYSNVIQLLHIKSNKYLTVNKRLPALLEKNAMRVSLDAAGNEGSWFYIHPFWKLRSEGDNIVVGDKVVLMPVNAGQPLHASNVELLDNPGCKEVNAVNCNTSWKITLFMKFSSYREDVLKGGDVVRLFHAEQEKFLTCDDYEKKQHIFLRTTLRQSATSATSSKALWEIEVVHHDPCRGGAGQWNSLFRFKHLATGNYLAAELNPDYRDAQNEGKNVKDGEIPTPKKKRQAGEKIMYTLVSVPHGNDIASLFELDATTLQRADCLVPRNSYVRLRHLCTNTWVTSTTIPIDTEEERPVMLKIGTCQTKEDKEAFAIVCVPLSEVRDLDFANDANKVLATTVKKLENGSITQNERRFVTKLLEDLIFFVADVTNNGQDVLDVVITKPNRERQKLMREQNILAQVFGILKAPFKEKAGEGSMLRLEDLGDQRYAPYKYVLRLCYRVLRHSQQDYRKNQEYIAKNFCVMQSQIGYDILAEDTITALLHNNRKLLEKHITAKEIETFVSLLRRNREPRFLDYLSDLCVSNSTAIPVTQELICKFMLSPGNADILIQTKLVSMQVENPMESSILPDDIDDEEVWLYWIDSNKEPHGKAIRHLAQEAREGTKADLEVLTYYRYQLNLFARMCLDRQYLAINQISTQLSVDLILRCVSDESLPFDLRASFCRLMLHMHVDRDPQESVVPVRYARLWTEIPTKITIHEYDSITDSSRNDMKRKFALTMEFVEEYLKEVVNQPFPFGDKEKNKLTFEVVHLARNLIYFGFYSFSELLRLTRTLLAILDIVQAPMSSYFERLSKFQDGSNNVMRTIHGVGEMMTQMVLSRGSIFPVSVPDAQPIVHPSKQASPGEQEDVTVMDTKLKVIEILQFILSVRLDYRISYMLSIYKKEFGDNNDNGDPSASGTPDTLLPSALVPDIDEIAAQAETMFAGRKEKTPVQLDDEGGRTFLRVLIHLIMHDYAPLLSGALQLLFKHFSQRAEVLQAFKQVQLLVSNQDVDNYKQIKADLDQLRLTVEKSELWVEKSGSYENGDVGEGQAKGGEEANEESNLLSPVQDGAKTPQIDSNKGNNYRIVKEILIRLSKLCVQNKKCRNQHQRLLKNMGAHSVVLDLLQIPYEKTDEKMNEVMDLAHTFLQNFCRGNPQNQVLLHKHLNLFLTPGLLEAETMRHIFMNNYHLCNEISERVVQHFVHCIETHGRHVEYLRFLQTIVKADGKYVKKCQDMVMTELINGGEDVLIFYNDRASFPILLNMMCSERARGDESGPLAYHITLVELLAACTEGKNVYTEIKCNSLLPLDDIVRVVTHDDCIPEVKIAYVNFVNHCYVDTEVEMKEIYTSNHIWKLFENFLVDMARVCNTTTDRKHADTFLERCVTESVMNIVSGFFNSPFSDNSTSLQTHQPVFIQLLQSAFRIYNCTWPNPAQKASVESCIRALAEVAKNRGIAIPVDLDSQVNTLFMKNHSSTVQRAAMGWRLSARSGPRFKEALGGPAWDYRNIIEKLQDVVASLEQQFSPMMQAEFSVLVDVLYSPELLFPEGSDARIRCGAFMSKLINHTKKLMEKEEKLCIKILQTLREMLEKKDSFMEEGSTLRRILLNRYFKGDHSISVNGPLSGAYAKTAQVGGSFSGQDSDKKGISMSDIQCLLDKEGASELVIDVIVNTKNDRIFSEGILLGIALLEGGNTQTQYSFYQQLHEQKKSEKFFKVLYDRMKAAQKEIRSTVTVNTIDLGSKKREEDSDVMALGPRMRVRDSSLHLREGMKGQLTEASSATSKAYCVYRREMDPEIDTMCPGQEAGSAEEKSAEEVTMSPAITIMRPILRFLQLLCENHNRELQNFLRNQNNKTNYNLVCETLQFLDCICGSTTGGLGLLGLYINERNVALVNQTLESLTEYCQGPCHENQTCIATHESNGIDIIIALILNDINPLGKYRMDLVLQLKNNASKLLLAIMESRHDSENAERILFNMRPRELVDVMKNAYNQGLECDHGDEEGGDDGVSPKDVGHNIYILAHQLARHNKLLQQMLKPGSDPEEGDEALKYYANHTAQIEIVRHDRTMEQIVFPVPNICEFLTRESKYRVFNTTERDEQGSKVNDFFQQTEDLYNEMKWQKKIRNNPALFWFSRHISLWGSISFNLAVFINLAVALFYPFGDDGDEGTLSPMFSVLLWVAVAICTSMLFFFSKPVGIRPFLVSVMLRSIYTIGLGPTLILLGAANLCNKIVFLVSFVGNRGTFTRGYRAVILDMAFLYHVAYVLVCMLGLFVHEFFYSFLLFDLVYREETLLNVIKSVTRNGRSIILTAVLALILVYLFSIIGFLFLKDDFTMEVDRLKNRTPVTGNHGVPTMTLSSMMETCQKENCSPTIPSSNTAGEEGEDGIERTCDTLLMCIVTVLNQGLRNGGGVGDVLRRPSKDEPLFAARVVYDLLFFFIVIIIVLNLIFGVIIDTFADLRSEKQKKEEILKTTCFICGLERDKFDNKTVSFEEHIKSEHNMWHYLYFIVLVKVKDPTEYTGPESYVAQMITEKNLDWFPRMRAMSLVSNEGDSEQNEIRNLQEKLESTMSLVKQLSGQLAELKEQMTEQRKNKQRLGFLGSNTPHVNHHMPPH
Bcl-xL S14A (endogenous, homozygous S14A knock-in mouse heart) (Q64373-1, form named): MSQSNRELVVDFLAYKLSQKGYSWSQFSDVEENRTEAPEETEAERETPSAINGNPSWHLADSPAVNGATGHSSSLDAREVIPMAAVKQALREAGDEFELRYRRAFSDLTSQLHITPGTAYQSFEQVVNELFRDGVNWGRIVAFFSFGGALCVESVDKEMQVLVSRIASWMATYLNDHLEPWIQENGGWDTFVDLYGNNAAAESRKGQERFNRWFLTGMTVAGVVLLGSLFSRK

Target: IP3R-type 2 (endogenous, mouse heart) (mouse (endogenous in heart)) (UniProt Q9Z329)
Test: co-IP; anti-IP3R type 2 antibody cross-linked to protein A/G agarose; heart lysates of WT and S14A knock-in mice 1 day after TAC or sham; overnight at 4 °C; immunoblot

| binding | Substance |
| --- | --- |
| binds | Bcl-xL S14A (endogenous, homozygous S14A knock-in mouse heart) (from UniProt Q64373-1 1-233) |
| binds | Bcl-xL (endogenous, wild type mouse heart) (from UniProt Q64373-1 1-233) |
